Results are given in words; binding and its absence hold for the method and conditions named.

The experiment concerns the target T1, hPygo1 PHD finger (amino acids 333-402), free (human) (UniProt Q9Y3Y4).
T1 sequence: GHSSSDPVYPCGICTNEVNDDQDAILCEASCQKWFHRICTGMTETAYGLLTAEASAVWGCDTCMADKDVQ
Nature of the experiment: crystal structure; binary PHD-HD1 complexes (hPHD_W366F-HD1, WT1, WT2); vapor diffusion at 19°C; both purified.

In the case of “hPygo1 PHD finger (amino acids 333-402), free (from UniProt Q9Y3Y4 333-402) (domain or fragment)”, the binding result is “no binding”.

For the origin of these results see article PMC2726290, “Decoding of Methylated Histone H3 Tail by the Pygo-BCL9 Wnt Signaling Complex” (Molecular Cell, 2008).
